Test system: T1, GYL
T1 construct: native lectin from hemolymph, biotin-labelled; signal peptide removed; N-terminus SGEXEAGW and EXEAGW (Edman); 161-residue precursor; 18,118 Da N-glycosylated subunit; disulfide-linked dimer of 36,053 Da; peptides CFSYVDWMSAEEPNDRF, LPFFFLCEKPTETC, WNDLSCSK
Assay: glycan microarray, biotinylated lectin, FITC-streptavidin
Format: binding, Glycymeris yessoensis
Conditions: GYL 50 µg/mL; glycan immobilised on chip through spacer

Structure (SMILES) | Average RFU [RFU]
CC(=O)N[C@H]1[C@H](OCCCN)O[C@H](CO)[C@@H](O[C@@H]2O[C@H](CO)[C@H](OS(=O)(=O)O)[C@H](O)[C@H]2O)[C@@H]1O [compound 159, 4-O-Su-Galβ1-4GlcNAcβ-sp3] | 5774
CC(=O)N[C@H]1[C@H](OCCN)O[C@H](CO)[C@@H](O[C@@H]2O[C@H](COS(=O)(=O)O)[C@H](OS(=O)(=O)O)[C@H](O)[C@H]2O)[C@@H]1O [compound 183, 4,6-O-Su2-Galβ1-4GlcNAcβ-sp2] | 3338
CC(=O)N[C@H]1[C@H](OCCCN)O[C@H](CO)[C@@H](O[C@@H]2O[C@H](CO)[C@H](O)[C@H](O[C@H]3O[C@H](CO)[C@H](O)[C@H](O)[C@H]3NC(C)=O)[C@H]2O[C@@H]2O[C@@H](C)[C@@H](O)[C@@H](O)[C@@H]2O)[C@@H]1O [compound 368, GalNAcα1-3(Fucα1-2)Galβ1-4GlcNAcβ-sp3] | 2080
CC(=O)N[C@H]1[C@@H](O[C@H]2[C@@H](O)[C@@H](CO)O[C@@H](O[C@H]3[C@H](O[C@@H]4O[C@@H](C)[C@@H](O)[C@@H](O)[C@@H]4O)[C@@H](NC(C)=O)[C@H](OCCCN)O[C@@H]3CO)[C@@H]2O)O[C@H](CO)[C@H](O)[C@@H]1O [compound 404, GalNAcα1-3Galβ1-4(Fucα1-3)GlcNAcβ-sp3] | 9114
